This is an account of results in patent EP4755878A1, “PHOTOCHROMIC COMPOUND, PHENOL DERIVATIVE, CURABLE COMPOSITION, OPTICAL ARTICLE, LENS, AND EYEGLASS” (TOKUYAMA CORPORATION, priority 2023, dated 2025).

Holding throughout (conditions): A35/A23 × 100, one value per compound
Series [1] in a line: Photochromic properties of photochromic laminate (plastic lens) made by coating method. Type of series: physicochemical. The source says: First, the photochromic compound obtained in Example 1 above, a photoinitiator, and polymerizable compounds were mixed to obtain a curable composition.
As the polymerizable compounds, a blend of the following radically-polymerizable monomers in combination was used.
• Polyethylene glycol dimethacrylate (average molecular weight: 736): 42 parts by mass • Polyethylene glycol dimethacrylate (average molecular weight: 536): 12 parts by mass • Trimethylolpropane trimethacrylate: 38 parts by mass • γ-Methacryloyloxypropyltrimethoxysilane: 2 parts by mass • Glycidyl methacrylate: 1 part by mass.
Note that in the curable composition, the photochromic compound obtained in Example 1 above was added to be 0.25 mmol taking the total amount of the radically-polymerizable monomers as 100 g. The following were used as additives.
(stabilizer, Irganox 245): 1 part by mass Bis(1,2,2,6,6-pentamethyl-4-piperidyl) sebacate: 3 parts by mass Leveling agent from DuPont Toray Specialty Materials K.K. (L7001): 0.1 parts by mass.
Note that the above-mentioned additives are described with blending ratios taking a total of the radically-polymerizable monomers as 100 parts by mass.
Using this curable composition, a photochromic laminate was obtained by a lamination process described below with the polymerization described below being carried out.
First, a thiourethane plastic lens with a center thickness of 2 mm and a refractive index of 1.60 was prepared as an optical substrate. Note that the thiourethane plastic lens had been alkaline-etched beforehand in a 10% aqueous sodium hydroxide solution at 50°C for 5 minutes, and then thoroughly washed with distilled water.
A spin coater (1H-DX2, manufactured by MIKASA CO., LTD) was used to coat a surface of the above-mentioned plastic lens with a moisture-curable primer (product name: TR-SC-P, manufactured by Tokuyama Corporation) at a rotation speed of 70 rpm for 15 seconds, followed by at 1000 rpm for 10 seconds. Then, about 2 g of the photochromic curable composition obtained as above was spin-coated at a rotation speed of 60 rpm for 40 seconds, followed by at 600 rpm for 10 to 20 seconds so as to achieve a photochromic coating layer with a film thickness of 40 µm.
The lens having the surface coated with the photochromic curable composition (photochromic coating layer) was irradiated with light for 90 seconds in a nitrogen gas atmosphere using a metal halide lamp with an output of 200 mW/cm^2 to cure the coating film. The coating was then further heated at 110°C for 1 hour to produce a photochromic laminate with a photochromic layer.
Photochromic laminates were produced using the photochromic compounds obtained in Examples 2 to 19 in the same manner as in Example 20.
Photochromic laminates were obtained in the same manner as in Example 20 using photochromic compounds represented by the following formulas (A) to (F). [drawing 143] [drawing 144] [drawing 145] [drawing 146] [drawing 147] [drawing 148] [drawing 149] [drawing 150]
The resulting photochromic laminates were evaluated by the methods described below.
Table 3 summarizes the results of Examples 20, 32, and 34, and Comparative Examples 1 to 6, and Table 4 summarizes the results of Examples 21 to 31, 33, and 35 to 38. The relationship between the fading half-life at 23°C and the color development ratio at the higher temperature of the photochromic laminates according to Examples and Comparative Examples are shown in a graph in FIG. 1.
Photochromic laminates were formed using the photochromic compound obtained in Examples 61 to 71 in the same manner as in Example 20.

Series [2] is described as follows: Photochromic properties of photochromic layer (binder sheet) made by binder method.
The nature of series [3]: Photochromic properties of photochromic cured product made by kneading method. Type of series: physicochemical. The source says: First, the photochromic compound obtained in Example 1, additives, and polymerizable compounds were mixed to obtain a curable composition. As the polymerizable compounds, a blend of the following polymerizable monomers in combination was used. • 1,3-Bis(isocyanatomethyl)cyclohexane: 36.7 parts by mass Pentaerythritol tetrakis(3-mercaptopropionate): 39.4 parts by mass • Polyoxyethylene polyoxypropylene lauryl ether (WONDERSURF 140 from Aoki Oil Industrial Co., Ltd.): 17.4 parts by mass 1-Decanethiol: 2.8 parts by mass • RX-1 prepared according to the method described in Patent Document 12: 3.8 parts by mass Note that in the curable composition, the photochromic compound was added to be 0.106 mmol taking the total amount of the polymerizable monomers as 100 g.
The following additives were used. Dimethyltin dichloride: 0.05 parts by mass • Irganox 245 from BASF Japan Ltd.: 0.1 parts by mass • 2-Ethylhexyl 4-methoxycinnamate: 0.6 parts by mass
The prepared curable composition was sufficiently degassed, and then injected into a glass mold provided with a gap of 1 mm, and the curable composition was polymerized via casting polymerization. […] After the polymerization, the cured product was removed from the glass mold, to obtain photochromic cured product having a thickness of 1 mm. The resulting photochromic cured product was evaluated in the same manner as in Example 23.
(Examples 51 to 60, and Comparative Examples 11 to 14) Photochromic cured products were formed using the photochromic compound shown in Table 6 in the same manner as in Example 50.

Regarding `CCCOc1ccc(C2(c3ccc(OC)cc3)C=Cc3c4c(c5cc6c(cc5c3O2)OC(C)(C)S6)-c2ccc(N3CCCc5ccccc53)cc2C4(CCCOC)CCCOC)cc1` (stereo not drawn) [Formula (7-4)], the “Color development ratio at high temperature” value (“Color development ratio” below) was found to be 69% in series [1], 67% in series [2] and 70% in series [3].
Regarding `CCCCOc1ccc(C2(c3ccc(OC)cc3)C=Cc3c4c(c5ccc(C)cc5c3O2)-c2ccc(N3CCOc5ccccc53)cc2C4(CCCC(F)(F)F)CCCC(F)(F)F)cc1` (stereo not drawn) [Formula (3-3)], the figures for the “Color development ratio” value in series [1], in series [2] and in series [3] were 77%, 75% and 78%, respectively.
The matching figures for `CCCCOc1ccc(C2(c3ccc(OCCCC)cc3)C=Cc3c4c(c5ccc(OC)cc5c3O2)-c2ccc(C)cc2C4(C)C)cc1` [Formula (B), reference compound]: 68%, 68% and 70%.
The matching figures for `COc1ccc(C2(c3ccc(OC)cc3)C=Cc3c4c(c5ccc(OC)cc5c3O2)-c2ccc(N3CCCCC3)cc2C4(C)C)cc1` [Formula (D), reference compound]: 75%, 75% and 80%.
Taken in the same sequence, the figures for `CCCOc1ccc(C2(c3ccc(OC)cc3)C=Cc3c4c(c5cc(C)c(OC)cc5c3O2)-c2ccc(N3CCSc5ccccc53)cc2C4(CCC)CCC)cc1` (stereo not drawn) [Formula (9-2)] were 73%, 70% and 74%.
Take `COCCCCC1(CCCCOC)c2cc(N(C)c3ccccc3)ccc2-c2c1c1c(c3cc(OC)c(OC)cc23)OC(c2ccc(OC)cc2)(c2ccc(OC)cc2)C=C1` [Formula (2-7)]: the “Color development ratio” value in series [1] came to 75%; in series [2], 72%; in series [3], 77%.
Turning to `COc1ccc(C2(c3ccc(N4CCOCC4)cc3)C=Cc3c4c(c5ccc(OC)cc5c3O2)-c2ccc(N(C)c3ccccc3)cc2C42CCCCCCC2)cc1` (stereo not drawn) [Formula (4-3)], the “Color development ratio” value is reported as 71% in series [1], 69% in series [2] and 72% in series [3].
For the molecule `COc1ccc(C2(c3ccc(OC)cc3)C=Cc3c4c(c5ccc(OC)cc5c3O2)-c2ccc(OC)cc2C4(C)C)cc1` [Formula (C), reference compound], the “Color development ratio” value in series [1] is given as 71%; in series [2], 71%; in series [3], 76%.
Take `CCCCC1(CCCC)c2cc(N(CC)c3ccccc3)ccc2-c2c1c1c(c3cc(C)c(-c4ccc(OC)cc4)cc23)OC(c2ccc(C)cc2)(c2ccc(N(C)c3ccccc3)cc2)C=C1` (stereo not drawn) [Formula (12-5)]: the “Color development ratio” value in series [1] worked out at 74%; in series [2] it was 72%; in series [3] it was 76%.
Taken in the same sequence, the figures for `COc1ccc(C2(c3ccc(OC)cc3)C=Cc3c4c(c5ccc(OC)cc5c3O2)-c2ccccc2C4(C)C)cc1` [Formula (A), reference compound] were 63%, 64% and 67%.
